Results deposited as PubChem BioAssay AID1508597 (Cure First, 2020).
Test: 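Knock-downs altering ovarian cancer cell survival with or without PARP inhibitor rucaparib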 (primary screen). Cells: human ovarian carcinoma lines grown from tumours: OCI-P5x (papillary serous) and OCI-C5x (clear cell). Reagent: siRNA pool against human genes, 1.25 pmol siRNA per well. Duration: 72 h or 96 h, depending on the cell culture. Conditions: rucaparib 20 µM (about IC30) or vehicle, present until read-out. Rucaparib or vehicle: Vehicle. Cell line: OCI-P5x (serous). Measurement: 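Luminescent ATP-based viability assay read 72 or 96 h after transfection, depending on culture, given as normalised percent viability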. Direction: viability, normalised: higher = more viable cells remaining. Rule for the call: 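a well counts as a hit if its normalised viability is under 80 percent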. Meaning of the calls: active = viability under 80%; inactive = viability 80% or more.
Shown is an unselected part of the about 2,100 reagents, under one of the conditions tested. 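Calls flag viability under 80% in either arm, not effects specific to rucaparib; the reference for percent is not stated.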 Not stated in the record: the 100% reference.

| Gene | technical replicate | viability, normalised (%) | call |
| --- | --- | --- | --- |
| CLDN10 (GeneID 9071) | 1 | 72.2 | active |
| CLDN10 (GeneID 9071) | 2 | 73.3 | active |
| CLDN10 (GeneID 9071) | 3 | 74 | active |
| NRBP1 (GeneID 29959) | 1 | 63.7 | active |
| NRBP1 (GeneID 29959) | 2 | 75.2 | active |
| NRBP1 (GeneID 29959) | 3 | 67.4 | active |
| ZNF830 (GeneID 91603) | 1 | 69.4 | active |
| ZNF830 (GeneID 91603) | 2 | 38.5 | active |
| ZNF830 (GeneID 91603) | 3 | 69.3 | active |
| BAZ1A (GeneID 11177) | 1 | 69.7 | active |
| BAZ1A (GeneID 11177) | 2 | 78.7 | active |
| BAZ1A (GeneID 11177) | 3 | 89.2 | inactive |
| HMG20B (GeneID 10362) | 1 | 78.7 | active |
| HMG20B (GeneID 10362) | 2 | 94.4 | inactive |
| HMG20B (GeneID 10362) | 3 | 173 | inactive |
| ADCK1 (GeneID 57143) | 1 | 68.7 | active |
| ADCK1 (GeneID 57143) | 2 | 72.1 | active |
| ADCK1 (GeneID 57143) | 3 | 85.1 | inactive |
| SMAD4 (GeneID 4089) | 1 | 46.4 | active |
| SMAD4 (GeneID 4089) | 2 | 43.1 | active |
| SMAD4 (GeneID 4089) | 3 | 57.2 | active |
| CBX3 (GeneID 11335) | 1 | 76.7 | active |
| CBX3 (GeneID 11335) | 2 | 71 | active |
| CBX3 (GeneID 11335) | 3 | 57.8 | active |

Targets above whose target name begins with C or c:
| Gene | technical replicate | viability, normalised (%) | call |
| --- | --- | --- | --- |
| CLDN10 (GeneID 9071) | 1 | 72.2 | active |
| CLDN10 (GeneID 9071) | 2 | 73.3 | active |
| CLDN10 (GeneID 9071) | 3 | 74 | active |
| CBX3 (GeneID 11335) | 1 | 76.7 | active |
| CBX3 (GeneID 11335) | 2 | 71 | active |
| CBX3 (GeneID 11335) | 3 | 57.8 | active |
